“And” between values parts separate entries of the source, which are not always exact repeats. Identical values can stand only once. In all, about 360,000 compounds went through this assay and about 7,500 (2.1%) were called active. The inconclusive results got no clear call from the source; some entries with a clear call stand among them for comparison. Calls follow the shape of the dose curve; as a rule, active = well fitted inhibition curve with a large enough effect; inconclusive = small, poorly fitted or top-dose-only effect, or effect the other way; inactive = flat fitted curve, though single readings scatter. Potencies of inconclusive entries are doubtful fits and often do not repeat. Some structures have more than one record in an assay (separate samples or runs), and their calls can disagree.
Assay: Nrf2 qHTS screen for inhibitors; also: nearly all actives have a fitted effect of over 60% in size
Details: A549 ARE-Fluc reporter, luciferase luminescence, 18-24 h; activity change, negative = inhibition: at 46 µM (top of the series)
Outline: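 Reporter: ARE-Fluc in A549. Exposure: 18-24 h, 37 °C, 5% CO2, 5% FBS OPTI-MEM. Readouts: fluorescent cytotoxicity (CellTiter-Fluor), then luminescent Nrf2 signal after BugLite.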
In the case of `CCC(C)NC(=O)c1cnc2n(c1=O)CCS2` (stereo unspecified), the Potency is reported as inconclusive: 18.4 µM [falling, partial curve, poor fit]. With `Nc1nc(Cl)nc2c1ncn2[C@@H]1O[C@H](CO)[C@@H](O)[C@H]1O` the Potency was inconclusive: 20.6 µM [falling, partial curve]. In the case of `N#Cc1nc(Nc2cccc(Cl)c2)nc(NC2CCCC2)n1`, the Potency is reported as inconclusive: 29.1 µM [falling, single point]. With `Cc1c(C(=O)NC2CC2)oc2ccc(S(=O)(=O)N3CCCCCC3)cc12` the Potency was inconclusive: 25.9 µM [falling, single point]. In the case of `COc1cc(-c2nnc(SCC(=O)c3ccc(C)cc3)o2)cc(OC)c1OC`, the “activity change, negative = inhibition” value is reported as inactive: 1.8%. For `CCOc1ccc(N(C)S(=O)(=O)c2ccc(C)c(C(=O)NCc3cccs3)c2)cc1`, the Potency was active: 16.4 µM. In the case of `Cc1cc2nc(CCN(C(=S)NCC(C)C)C3CCCC3)[nH]c2cc1C`, the Potency is reported as inconclusive: 25.9 µM [falling, single point]. With `O=[N+]([O-])c1cccc(C2=NCCC(c3ccccc3)O2)c1` (stereo unspecified) the “activity change, negative = inhibition” value was inactive: 0.781%. In the case of `CC(C)c1ccc(CNc2n[nH]c(-c3ccco3)n2)cc1`, the Potency is reported as inconclusive: 10.3 µM [activator, partial curve]. In the case of `COCCNC(=O)C1=CC(c2ccc3c(c2)OCO3)=NS(=O)(=O)N1C`, the Potency is reported as inconclusive: 23.1 µM [activator, single point]. In the case of `O=C(CCc1ccc(S(=O)(=O)N2CCOCC2)cc1)N/N=C/c1ccc(O)c(O)c1O`, the Potency is reported as inconclusive: 32.6 µM [falling, partial curve, poor fit]. For `CN(Cc1ccc(Cl)cc1Cl)C(=O)c1cccc(S(=O)(=O)N2CCN(c3ccccc3)CC2)c1`, the Potency was inconclusive: 23.1 µM [falling, single point]. For `CC1CC(C)CN(S(=O)(=O)c2ccc(C(=O)Nc3nnc(C4CC4)o3)cc2)C1` (stereo unspecified), the Potency was inconclusive: 11.6 µM [falling, partial curve, poor fit]. With `Cc1ccc(NC(=O)C2=COCCO2)cc1S(=O)(=O)N1CCOCC1` the “activity change, negative = inhibition” value was inactive: 2.84%. With `c1cc[n+](CCC[n+]2ccccc2)cc1` the “activity change, negative = inhibition” value was inactive: 0.856%. With `Cc1cc2c(cc3c(SCc4ccccc4Cl)nnc(C)n32)o1` the Potency was inconclusive: 2.91 µM [activator, partial curve, poor fit]. In the case of `Cc1nn(-c2ccccc2)c(C)c1/C=N/NC(=O)c1cccs1`, the Potency is reported as inconclusive: 29.1 µM [activator, single point]. With `CC(=O)C1=C(C)NC(SCC(=O)c2ccc(F)cc2)=C(C#N)C1CC(C)C` (stereo unspecified) the “activity change, negative = inhibition” value was inactive: -24.3%. With `CCN(C(=O)C1CCCN(c2ncnc3c2nc2n3CCCCC2)C1)c1cccc(Cl)c1` (stereo unspecified) the Potency was “inactive and active: 14.6 µM”. For `Cc1ccccc1-c1nc(CN2CCC(C(=O)N3CCC(C(N)=O)CC3)CC2)c(C)o1`, the Potency was inconclusive: 4.61 µM [falling, partial curve, poor fit]. In the case of `COc1cccc(NS(=O)(=O)c2ccc3[nH]cc(C(=O)N4CCCC4)c(=O)c3c2)c1`, the Potency is reported as inconclusive: 25.9 µM [falling, single point]. For `CC(=O)c1ccc(NC(=O)COCc2cc(-c3ccc(F)cc3)on2)cc1`, the “activity change, negative = inhibition” value was inactive: 12.3%. For `CC(=O)Nc1cccc(OCC(=O)Nc2ccccc2)c1`, the Potency was inconclusive: 5.8 µM [activator, full curve, poor fit]. For `CN(Cc1ccccc1)c1ncnc2c1cnn2-c1ccccc1`, the Potency was inconclusive: 6.51 µM [activator, partial curve, poor fit]. In the case of `Cc1ccc(NS(=O)(=O)c2ccc(NC(=O)N3CCCCC3)cc2)cc1`, the Potency is reported as inconclusive: 13 µM [falling, partial curve, poor fit]. For `Cn1c(-c2ccc(C=O)s2)nc2c3ccccc3c3ccccc3c21`, the Potency was inconclusive: 29.1 µM [falling, single point]. In the case of `O=C(O)c1cc(-c2ccc(Cl)s2)nc2ccccc12`, the Potency is reported as inconclusive: 10.3 µM [activator, partial curve]. For `Cc1ccc(-c2csc(NC(=O)Cn3[nH]c(=O)c4ccccc4c3=O)n2)cc1`, the Potency was inconclusive: 0.517 µM [falling, partial curve, poor fit]. For `CC(C)C[C@H](NC(=O)c1nc[nH]c1C(=O)NC1CCN(C(=O)OC(C)(C)C)CC1)C(=O)OC(C)(C)C`, the Potency was inconclusive: 16.4 µM [falling, single point]. For `O=C(Nc1ccc(C(F)(F)F)cc1)C(Cc1ccccc1)n1cccc1` (stereo unspecified), the Potency was inconclusive: 25.9 µM [falling, single point]. With `O=C(O)c1ccc2c(c1)C(=O)N(c1nccs1)C2=O` the “activity change, negative = inhibition” value was inactive: 1.28%. In the case of `CCN(CC)C(=O)c1cc2c(=O)c3cc(F)ccc3oc2nc1C`, the Potency is reported as inconclusive: 18.4 µM [activator, partial curve, poor fit]. In the case of `CC(=O)c1ccc(Oc2cc(-c3ccccc3)nc(-c3ccccc3)n2)cc1`, the Potency is reported as inconclusive: 2.31 µM [falling, partial curve, poor fit]. For `CCSc1nc2c([nH]1)c(=O)n(C)c(=S)n2C`, the “activity change, negative = inhibition” value was inactive: -10.1%. In the case of `O=C(NCCCN1CCN(c2ccccc2F)CC1)c1ccc2nc(N3CCCCC3)sc2c1`, the Potency is reported as inconclusive: 2.59 µM [activator, partial curve]. In the case of `Cn1c(SCCOc2cccc(Cl)c2)nnc1-c1ccncc1`, the Potency is reported as inconclusive: 13 µM [falling, partial curve]. In the case of `Cc1onc(-c2c(F)cccc2Cl)c1C(=O)Nc1nnc(C(F)(F)F)s1`, the Potency is reported as active: 1.46 µM. In the case of `O=C(c1ccc2nc3ccc(Cl)cc3c(=O)n2c1)N1CCOCC1`, the “activity change, negative = inhibition” value is reported as inactive: 6.15%. In the case of `COC(=O)Nc1ccc(S(=O)(=O)Nc2cnc3ccccc3n2)cc1`, the Potency is reported as inconclusive: 16.4 µM [falling, partial curve, poor fit]. With `Cc1c(C(=O)NCc2ccc3c(c2)OCO3)sc2nc(-c3ccccc3)cn12` the Potency was inconclusive: 14.6 µM [falling, single point]. For `O=C(NCc1ccco1)C1CCN(C(=O)c2cc3sccc3n2Cc2ccc(F)cc2)CC1`, the Potency was inconclusive: 29.1 µM [falling, single point]. For `CC(=O)Nc1ccc(C(=O)Nc2cccc(S(=O)(=O)N(C)c3ccccc3)c2)cc1`, the Potency was inconclusive: 29.1 µM [falling, single point]. For `CCCCCCCCn1c(=O)c(C(=O)OCC)c(O)c2ccccc21`, the Potency was inconclusive: 29.1 µM [falling, single point]. With `COC(=O)c1c(NC(=O)COC(=O)c2ccc(O)cc2)sc2c1CCCCC2` the Potency was inconclusive: 3.26 µM [falling, single point]. With `CCCCCN(C(=O)CCC(=O)OCc1cc(C)ccc1C)c1c(N)n(CCCC)c(=O)[nH]c1=O` the Potency was inconclusive: 20.6 µM [falling, partial curve, poor fit]. With `CCOc1ccc(CCNC(=O)CCn2ccc3cc(S(=O)(=O)N4CCCC4)ccc32)cc1` the Potency was active: 25.9 µM. For `CC(=O)Nc1cccc(-c2nc3ccc(NC(C)=O)cc3s2)c1`, the Potency was inconclusive: 1.64 µM [activator, partial curve, poor fit]. In the case of `CC(C)N(Cc1ccccc1)C(=O)CN1C(=O)CSc2ccc(S(=O)(=O)N3CCCC3)cc21`, the Potency is reported as inconclusive: 13 µM [falling, partial curve, poor fit]. With `Cc1cc(O)c(-c2cc(C(=O)NCc3ccc4c(c3)OCO4)[nH]n2)cc1C` the Potency was inconclusive: 16.4 µM [falling, single point]. For `COc1ccccc1-c1nnc2sc(-c3cc4ccccc4o3)nn12`, the “activity change, negative = inhibition” value was inactive: 2.08%. For `CC(C)c1ccc(-n2c(-c3ccccc3)c[n+]3c2CCc2ccccc2-3)cc1`, the Potency was active: 2.06 µM. In the case of `COc1ccc(OCC(=O)Nc2ccc(-c3nc4cc(C)c(C)cc4o3)cc2)cc1`, the Potency is reported as inconclusive: 1.3 µM [activator, full curve]. With `Cc1cc(C(=O)NC(C)C2CC2)c(Cl)cc1Cl` (stereo unspecified) the “activity change, negative = inhibition” value was inactive: 1.24%. For `N#CCc1ccc(NS(=O)(=O)c2ccc(C3CCCCC3)cc2)cc1`, the Potency was inconclusive: 29.1 µM [falling, single point]. For `CCOc1ccc(NC(=O)NC23CC4CC(CC(C4)C2)C3)cc1`, the Potency was inconclusive: 10.3 µM [activator, partial curve]. With `C/C=C/c1ccc(OCC(O)CN2CCCCCCC2)c(OC)c1` (stereo unspecified) the Potency was inconclusive: 14.6 µM [activator, single point]. For `O=c1c2c(nc3cc(-c4cccc(Cl)c4)[nH]n13)CCC2`, the “activity change, negative = inhibition” value was inactive: 9.18%. For `CC1CC(=O)N(c2ccc(Br)cc2)C(=O)C1`, the Potency was inconclusive: 10.3 µM [activator, partial curve, poor fit]. In the case of `Cc1ccc2[nH]c(=O)c(CN(Cc3ccco3)Cc3nnnn3Cc3ccco3)cc2c1`, the Potency is reported as inconclusive: 13 µM [falling, partial curve, poor fit]. With `O=C(OCC(=O)N1CCc2ccccc21)c1cccnc1` the Potency was inconclusive: 4.11 µM [activator, partial curve, poor fit]. For `O=C(Nc1cccc(F)c1)c1cc(S(=O)(=O)N2CCOCC2)cs1`, the Potency was inconclusive: 29.1 µM [falling, single point]. In the case of `Cc1cc(=O)oc2cc(OCC(=O)OCC(=O)Nc3ccccc3F)ccc12`, the “activity change, negative = inhibition” value is reported as inactive: 25.6%. With `S=C(c1ccc(-c2ccc(Br)cc2)o1)N1CCOCC1` the Potency was inconclusive: 4.61 µM [activator, partial curve]. In the case of `O=c1c2c(-c3cccs3)csc2ncn1/N=C/c1ccc(OC(F)F)cc1`, the Potency is reported as active: 9.2 µM. In the case of `CC(C)(C)N(Cc1nc(-c2ccccc2)no1)C(=O)c1ccc2c(c1)OCO2`, the Potency is reported as inconclusive: 5.8 µM [falling, single point]. With `Cc1ccnc(NC(=O)Cn2cc([N+](=O)[O-])cn2)c1` the Potency was inconclusive: 25.9 µM [activator, single point].
% is scaled to controls: 0 for no effect and ±100 for the full control effect; potency is read from the fitted curve at half-maximal effect.
